Values of other authors in patent US9809640B2, “ApoE peptide dimers and uses thereof” (priority 2010, dated 2017).
At least one peptide structure holds a part that was inferred or is arguable (an end, a ring closure or a residue). Non-standard residues stand in square brackets, D forms with d. Residues, ends and D or L forms follow the SMILES beside them. Aib = CC(C)(N)C(=O)O

System: BV2 microglia cells
Conditions: previously shown; cited from earlier work

Structure (SMILES): CC(=O)N[C@@H](C)C(=O)N[C@@H](CO)C(=O)NC(C)(C)C(=O)N[C@@H](CC(C)C)C(=O)N[C@@H](CCCNC(=N)N)C(=O)N[C@@H](CCCCN)C(=O)N[C@@H](CC(C)C)C(=O)NC(C)(C)C(=O)N[C@@H](CCCCN)C(=O)N[C@@H](CCCNC(=N)N)C(=O)N[C@@H](CC(C)C)C(=O)N[C@@H](CC(C)C)C(N)=O [COG1410, AS(Aib)LRKL(Aib)KRLL (SEQ ID NO: 5)] (Ac-AS[Aib]LRKL[Aib]KRLL-NH2; N-terminus and C-terminus assumed)
- anti-inflammatory activity relative to COG133 in NO release assays: improved anti-inflammatory activity
